HELM strings list residues between dots; [ac] is acetyl, [am] amide, other brackets name non-standard units.
Test: general procedure: Fmoc solid-phase peptide synthesis; Rink Amide MBHA low-loading resin (0.308 mmol/g); HATU/DIPEA (manual); DIC/oxyma (automated)
Conditions: for final HPLC purity / isolated yield: whole synthesis; for final HPLC purity: analytical HPLC, scale of the general procedure 0.1 or 0.25 mmol; for isolated yield: scale 0.25 mmol; for cyclisation yield: cyclisation step

Substance	final HPLC purity	isolated yield	cyclisation yield (run 1)	cyclisation yield (run 2)
PEPTIDE1{[5TAMRA].R.F.M.D.Y.W.E.G.L.[am]}$$$$V2.0	95%	–	–	–
PEPTIDE1{[ac].T.S.F.A.C.Y.W.N.G.L.S.C.[am]}$$$$V2.0	91%	14%	–	–
PEPTIDE1{[ac].T.S.F.A.C.Y.W.N.G.L.S.C.[am]}|CHEM1{[AzoCl4]}$PEPTIDE1,CHEM1,6:R3-1:R1|PEPTIDE1,CHEM1,13:R3-1:R2$$$V2.0	–	–	38% yield	18-38% yield
PEPTIDE1{[ac].T.S.F.A.E.Y.W.N.N.L.S.P.[am]}$$$$V2.0	96%	6%	–	–

Source: article PMC10763561 (RSC Chemical Biology, 2023)
